Article PMC5706701, “Development of a homogenous high-throughput assay for inositol hexakisphosphate kinase 1 activity” (PLoS ONE, 2017)

Protein sequences, listed by entry. Tags and fused reporters are not part of them. Lines headed by an entry give the natural chain unless they say otherwise; changes in a name come on top.
UniProt Q92551: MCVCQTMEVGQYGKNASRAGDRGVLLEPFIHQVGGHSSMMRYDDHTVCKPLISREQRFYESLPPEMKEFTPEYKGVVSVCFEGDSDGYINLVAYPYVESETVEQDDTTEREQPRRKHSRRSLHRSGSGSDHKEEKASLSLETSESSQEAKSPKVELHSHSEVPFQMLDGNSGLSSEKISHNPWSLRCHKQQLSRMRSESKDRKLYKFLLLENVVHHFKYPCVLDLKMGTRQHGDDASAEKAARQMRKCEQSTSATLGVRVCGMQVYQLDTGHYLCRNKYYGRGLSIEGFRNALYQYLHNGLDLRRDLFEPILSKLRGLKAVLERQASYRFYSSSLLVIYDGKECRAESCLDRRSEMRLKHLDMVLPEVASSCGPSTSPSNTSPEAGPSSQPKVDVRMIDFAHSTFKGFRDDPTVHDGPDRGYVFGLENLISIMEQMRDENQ

Molecular target: T1, Human IP6K1 (Homo sapiens, UniProt Q92551)
T1 construct: GST (N, cleaved yes); made in house; host or cells: C43 E. coli, pGEX-6P-2
Test: IP6K1 high-throughput screen of the Sigma LOPAC (ADP-Glo Max, single point);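 note: final compound concentration 10µM in 5% DMSO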
Format: biochemical

SMILES | Raw Signal | Z-score
CCCC[N+]1(C)[C@@H]2C[C@@H](OC(=O)[C@H](CO)c3ccccc3)C[C@H]1[C@@H]1O[C@@H]12.[Br-] (single isomer, unassigned; (-)) [(-)-Scopolamine,n-Butyl-, bromide] | 53834 | -0.4254
CC[N+](CC)(CC)CC(=O)Nc1c(C)cccc1C.[Br-] | 52677 | -0.2884
